From the supplement of paper PMC7661543
The effect of the compound repeats well; differences between the knockouts mostly do not.

Test system: MDA-MB-231
Assay: relative cell number vs DMSO control (72 h) (% of DMSO); higher = less growth inhibition (more cells)
Method: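 QMAP-Seq: a pool of 5 breast cancer cell lines (ZR-75-1, SKBR3, HCC-38, MDA-MB-231, BT-20), each carrying 12 doxycycline-inducible Cas9 sgRNA perturbations (11 knockouts plus non-targeting sgNT), was treated with compounds for 72 h at four 10-fold doses (10 nM-10 uM or 1 nM-1 uM range). Barcodes were amplified and sequenced, and cell number was interpolated from 293T spike-in standard curves. The result is expressed as % of the median of DMSO wells. Two biological replicates.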

CCNC(=O)c1noc(-c2cc(C(C)C)c(O)cc2O)c1-c1ccc(CN2CCOCC2)cc1 [NVPAUY922]
Conditions | relative cell number
sgRNA knockout: sgATF3, 1 nM | 92.1
sgRNA knockout: sgATF3, 10 nM | 63.4
sgRNA knockout: sgATF3, 100 nM | 13.9
sgRNA knockout: sgATF3, 1000 nM | 16.5
sgRNA knockout: sgATF4, 1 nM | 113
sgRNA knockout: sgATF4, 10 nM | 87
sgRNA knockout: sgATF4, 100 nM | 28.2
sgRNA knockout: sgATF4, 1000 nM | 19.24
sgRNA knockout: sgATF6, 1 nM | 100
sgRNA knockout: sgATF6, 10 nM | 65.2
sgRNA knockout: sgATF6, 100 nM | 17.4
sgRNA knockout: sgATF6, 1000 nM | 16
sgRNA knockout: sgATG7, 1 nM | 94.3
sgRNA knockout: sgATG7, 10 nM | 63.6
sgRNA knockout: sgATG7, 100 nM | 15.6
sgRNA knockout: sgATG7, 1000 nM | 13
sgRNA knockout: sgERN1, 1 nM | 104
sgRNA knockout: sgERN1, 10 nM | 60.6
sgRNA knockout: sgERN1, 100 nM | 19.2
sgRNA knockout: sgERN1, 1000 nM | 15
sgRNA knockout: sgHSF1, 1 nM | 89.7
sgRNA knockout: sgHSF1, 10 nM | 46.6
sgRNA knockout: sgHSF1, 100 nM | 17.9
sgRNA knockout: sgHSF1, 1000 nM | 10.7
sgRNA knockout: sgHSF2, 1 nM | 101
sgRNA knockout: sgHSF2, 10 nM | 71.9
sgRNA knockout: sgHSF2, 100 nM | 17.1
sgRNA knockout: sgHSF2, 1000 nM | 8.61
sgRNA knockout: sgKEAP1, 1 nM | 112
sgRNA knockout: sgKEAP1, 10 nM | 76.2
sgRNA knockout: sgKEAP1, 100 nM | 17.7
sgRNA knockout: sgKEAP1, 1000 nM | 10.7
sgRNA knockout: sgNFE2L2, 1 nM | 119
sgRNA knockout: sgNFE2L2, 10 nM | 86.8
sgRNA knockout: sgNFE2L2, 100 nM | 14.4
sgRNA knockout: sgNFE2L2, 1000 nM | 13.8
sgRNA knockout: sgSLC35F2, 1 nM | 90.8
sgRNA knockout: sgSLC35F2, 10 nM | 80
sgRNA knockout: sgSLC35F2, 100 nM | 15.1
sgRNA knockout: sgSLC35F2, 1000 nM | 9.47
sgRNA knockout: sgXBP1, 1 nM | 104
sgRNA knockout: sgXBP1, 10 nM | 78.3
sgRNA knockout: sgXBP1, 100 nM | 14.9
sgRNA knockout: sgXBP1, 1000 nM | 12

O=C(Nc1ccc([N+](=O)[O-])cc1Cl)c1cc(Cl)ccc1O [Niclosamide]
Conditions | relative cell number
sgRNA knockout: sgATF3, 10 nM | 99.2
sgRNA knockout: sgATF3, 100 nM | 104
sgRNA knockout: sgATF3, 1000 nM | 97.5
sgRNA knockout: sgATF3, 10000 nM | 38.6
sgRNA knockout: sgATF4, 10 nM | 96.9
sgRNA knockout: sgATF4, 100 nM | 103
sgRNA knockout: sgATF4, 1000 nM | 84.5
sgRNA knockout: sgATF4, 10000 nM | 40.4
sgRNA knockout: sgATF6, 10 nM | 106
sgRNA knockout: sgATF6, 100 nM | 98.1
sgRNA knockout: sgATF6, 1000 nM | 112
sgRNA knockout: sgATF6, 10000 nM | 45.8
sgRNA knockout: sgATG7, 10 nM | 91.9
sgRNA knockout: sgATG7, 100 nM | 93.2
sgRNA knockout: sgATG7, 1000 nM | 90.7
sgRNA knockout: sgATG7, 10000 nM | 43.1
sgRNA knockout: sgERN1, 10 nM | 85.4
sgRNA knockout: sgERN1, 100 nM | 87.6
sgRNA knockout: sgERN1, 1000 nM | 87.4
sgRNA knockout: sgERN1, 10000 nM | 36.7
sgRNA knockout: sgHSF1, 10 nM | 83.5
sgRNA knockout: sgHSF1, 100 nM | 99.4
sgRNA knockout: sgHSF1, 1000 nM | 88.6
sgRNA knockout: sgHSF1, 10000 nM | 35.8
sgRNA knockout: sgHSF2, 10 nM | 85.9
sgRNA knockout: sgHSF2, 100 nM | 102
sgRNA knockout: sgHSF2, 1000 nM | 93.4
sgRNA knockout: sgHSF2, 10000 nM | 43.2
sgRNA knockout: sgKEAP1, 10 nM | 94.2
sgRNA knockout: sgKEAP1, 100 nM | 101
sgRNA knockout: sgKEAP1, 1000 nM | 102
sgRNA knockout: sgKEAP1, 10000 nM | 50.3
sgRNA knockout: sgNFE2L2, 10 nM | 103
sgRNA knockout: sgNFE2L2, 100 nM | 95.1
sgRNA knockout: sgNFE2L2, 1000 nM | 107
sgRNA knockout: sgNFE2L2, 10000 nM | 38.8
sgRNA knockout: sgSLC35F2, 10 nM | 85.6
sgRNA knockout: sgSLC35F2, 100 nM | 106
sgRNA knockout: sgSLC35F2, 1000 nM | 98.9
sgRNA knockout: sgSLC35F2, 10000 nM | 39.8
sgRNA knockout: sgXBP1, 10 nM | 111
sgRNA knockout: sgXBP1, 100 nM | 90.5
sgRNA knockout: sgXBP1, 1000 nM | 92.8
sgRNA knockout: sgXBP1, 10000 nM | 39.7
